These are yes or no findings as the source states them, for the method shown. Some binding calls cover weakened binding; strength is not graded here.
Biological target: T1, recombinant pH-regulated antigen 1 (Pra1) of C. albicans (Candida albicans) (UniProt P87020)
T1 sequence (looked up): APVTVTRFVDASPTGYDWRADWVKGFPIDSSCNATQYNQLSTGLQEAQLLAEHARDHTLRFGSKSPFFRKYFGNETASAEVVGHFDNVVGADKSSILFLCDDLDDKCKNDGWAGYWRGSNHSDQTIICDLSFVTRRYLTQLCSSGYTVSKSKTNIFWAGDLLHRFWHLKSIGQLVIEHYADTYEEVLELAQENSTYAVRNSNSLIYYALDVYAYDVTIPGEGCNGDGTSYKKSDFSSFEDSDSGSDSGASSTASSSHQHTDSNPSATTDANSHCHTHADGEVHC
Assay: Western blot on recombinant protein

B1: monoclonal antibody 8C3 directed against Pra1 of Candida albicans, produced by the hybridoma cell line DSM ACC 3369 (antibody, mouse IgG1, kappa, V domains shown)
VH: EVQLVESGGDLVKPGGSLKLSCAASGFTFSTYGMSWVRQTPDKRLEWVATISSGGSYTYYPDSVKGRFTISRDNVKNTLYLQMSSLKSEDTAMYYCARQGLDDNYAEWYFDVWGAGTTVTVSS
VL: DILLTQSPATLSVTPGETVSLSCRASQSIYKNLHWYQQKSHRSPRLLIKYASDSISGIPSRFTGSGSGTDYTLSINSVKPEDEGKYYCLQGFSTPWTFGGGTKLEIKR
  binding: binds

Reference: patent publication US20240352099A1
